According to PMC2896474, “Thioredoxin A Active-Site Mutants Form Mixed Disulfide Dimers That Resemble Enzyme–Substrate Reaction Intermediates” (Journal of Molecular Biology, 2008):
Results are given in words; binding and its absence hold for the method and conditions named. Sequences can lack the tags named with a protein.

How the values were obtained:
[1] = target: C29S single-mutant BsTrxA, C-terminal His6-tag (B. subtilis 168) (UniProt P14949); experiment: reducing SDS-PAGE + capillary gel electrophoresis (2100 Bioanalyzer); purified His6-tagged BsTrxA proteins alone, 10 mM DTT added to the samples before electrophoresis (Fig. 2a, lanes + DTT); both purified
[2] = target: C29S single-mutant BsTrxA, C-terminal His6-tag (B. subtilis 168) (UniProt P14949); experiment: nonreducing SDS-PAGE + capillary gel electrophoresis (2100 Bioanalyzer) after AMS labelling; purified His6-tagged BsTrxA proteins alone, incubated with 0.3 mM AMS, no DTT (Fig. 2a, lanes + AMS); both purified
[3] = target: C32S single-mutant BsTrxA, C-terminal His6-tag (B. subtilis 168) (UniProt P14949); experiment: reducing SDS-PAGE + capillary gel electrophoresis (2100 Bioanalyzer); purified His6-tagged BsTrxA proteins alone, 10 mM DTT added to the samples before electrophoresis (Fig. 2a, lanes + DTT); both purified

Row | binding [1] | binding [2] | binding [3] | Binder
1 | no binding (condition: with 10 mM DTT) | no binding (condition: with 0.3 mM AMS) |  | C29S single-mutant BsTrxA, C-terminal His6-tag (enzyme, B. subtilis 168, UniProt P14949 1-104, looked up, Vector probably adds Leu-Glu before His6 (surmised); also called C29S BsTrxA; BsTrxA(C29S); source: E. coli BL21(DE3), purified (nickel IMAC HisTrap HP, Superdex 75 gel filtration); not shown: His6, C-terminal, kept) MAIVKATDQSFSAETSEGVVLADFWAPWSGPCKMIAPVLEELDQEMGDKLKIVKIDVDENQETAGKYGVMSIPTLLVLKDGEVVETSVGFKPKEALQELVNKHL
2 |  |  | no binding (condition: with 10 mM DTT) | C32S single-mutant BsTrxA, C-terminal His6-tag (enzyme, B. subtilis 168, UniProt P14949 1-104, looked up, In the homodimer the two chains are joined by a Cys29-Cys29 disulfide bond (crystal structure 2VOC); Vector probably adds Leu-Glu before His6 (surmised); also called C32S BsTrxA; TrxA C32S; source: E. coli BL21(DE3), purified (nickel IMAC HisTrap HP, Superdex 75 gel filtration); not shown: His6, C-terminal, kept) MAIVKATDQSFSAETSEGVVLADFWAPWCGPSKMIAPVLEELDQEMGDKLKIVKIDVDENQETAGKYGVMSIPTLLVLKDGEVVETSVGFKPKEALQELVNKHL
